Measured values taken from PMC12431657, “Discovery and mechanistic insights of dibenzoylmethane as a broad spectrum inhibitor of coronavirus” (PLOS Pathogens, 2025).
Counter-ions that a name gives are not always drawn. Like-named read-outs stand apart in the source and are kept apart here. The whole screen tested about 3,300 compounds, of which about 60 (2%) showed an effect of 50% or more. The list shows a part of the results.

Tested on: HCoV-OC43
Set-up: species or system RD; HTS, protection from HCoV-OC43 induced cell death, luminescent cell viability (CellCounting-Lite 2.0), inhibition rate
Conditions: 24 h post infection, 1 h compound pre-incubation, 10 µM, inhibitor

Compound	OC43 Inhibition rate	OC43 Inhibition rate (OC43 Inhibition rate, 24 h)
CC(=O)OCC1=C[C@H](O)[C@@H]2C(C(=O)O)=CO[C@@H](O[C@@H]3O[C@H](CO)[C@@H](O)[C@H](O)[C@H]3O)[C@H]12 [Asperulosidic Acid]	0.4%	
N[C@@H](Cc1cc(I)c(Oc2cc(I)c(O)c(I)c2)c(I)c1)C(=O)O [L-Thyroxine]	1%	
Cc1cc(=O)oc2cc(O)c(O)cc12 [4-Methylesculetin]	-0.2%	
CSC(=O)OCC1=C[C@@H]2OC(=O)C3=CO[C@@H](O[C@@H]4O[C@H](CO)[C@@H](O)[C@H](O)[C@H]4O)[C@H]1[C@@H]32 [Paederoside]	-0.4%	
O=C(O)C(O)Cc1ccc(O)c(O)c1 (centres unmarked) [Danshensu (sodium salt)]	-1.1%	
O=C[C@H](O)[C@@H](O)[C@H](O)CO [Xylose]		1.2%
CC1=CC(=O)C(C(C)C)=CC1=O [Thymoquinone]	2.8%	
CCCCCC/C=C\CCCCCCCC(=O)O [Palmitoleic acid]	0.2%	
O=C1/C(=C/c2ccc(O)c(O)c2)COc2cc(O)ccc21 [Sappanone A]	25.2%	
CCC(C)(C)C(=O)O[C@H]1C[C@@H](C)C=C2C=C[C@H](C)[C@H](CC[C@@H](O)C[C@@H](O)CC(=O)O)[C@H]21 [Simvastatin acid (ammonium)]	5%	
N[C@H]1[C@H](O[C@H]2[C@H](O)[C@@H](N)[C@H](O[C@H]3[C@H](O)[C@@H](N)[C@H](O[C@@H]([C@H](O)[C@@H](N)C=O)[C@H](O)CO)O[C@@H]3CO)O[C@@H]2CO)O[C@H](CO)[C@@H](O)[C@@H]1O [Chitotetraose (tetrahydrochloride)]	-0.2%	
O=C(O)CC(O)(CC(=O)O)C(=O)O [Citric acid]		-0.4%
O=Cc1ccccc1O[C@@H]1O[C@H](CO)[C@@H](O)[C@H](O)[C@H]1O [Helicin]	7.3%	
CCCCCCC/C=C\C(=O)O [(Z)-2-Decenoic acid]	29.5%	
CC1(C)[C@@H](O[C@H]2O[C@H](C(=O)O)[C@@H](O)[C@H](O)[C@H]2O[C@@H]2O[C@H](C(=O)O)[C@@H](O)[C@H](O)[C@H]2O)CC[C@]2(C)[C@H]3C(=O)C=C4[C@@H]5C[C@@](C)(C(=O)O)CC[C@]5(C)CC[C@@]4(C)[C@]3(C)CC[C@@H]12 [Glycyrrhizic acid]		-0.1%
CC1=CC(=O)CC(C)(C)C1(O)/C=C/C(C)=C\C(=O)O (racemic) [(±)-Abscisic acid]		-0.8%

Compound	OC43 Inhibition rate	OC43 Inhibition rate (OC43 Inhibition rate, 24 h)
CC(=O)O[C@H]1C(=O)[C@@]2(C)[C@H]([C@H](OC(=O)c3ccccc3)[C@]3(O)C[C@H](OC(=O)[C@H](O)[C@@H](NC(=O)c4ccccc4)c4ccccc4)C(C)=C1C3(C)C)[C@]1(OC(C)=O)CO[C@@H]1C[C@@H]2O [Paclitaxel]		32.2%
O=C(O)Cc1c[nH]c2ccccc12 [3-Indoleacetic acid]	-0.9%	
C[C@@H]1O[C@@H](OC[C@H]2O[C@@H](OCCc3ccc(O)c(O)c3)[C@H](O)[C@@H](O[C@@H]3O[C@@H](C)[C@H](O)[C@@H](O)[C@H]3O)[C@@H]2OC(=O)/C=C/c2ccc(O)c(O)c2)[C@H](O)[C@H](O)[C@H]1O [Poliumoside]	-0.3%	
CC(C(=O)O)c1ccccc1 (centres unmarked) [2-Phenylpropionic acid]	-0.3%	
N[C@@H](CO)C(=O)O [L-Serine]	0.9%	
CC(=O)O[C@@H]1C[C@]23C4=CC[C@@]5(C)[C@H](C(=O)O)[C@@](C)([C@H](C)C(C)C)CC[C@]5(C)[C@H]4CC[C@H]2[C@@](C)(COC3O)[C@H]1O[C@@H]1O[C@H](CO)[C@@H](O)[C@H](O)[C@H]1O (some centres unmarked) [Enfumafungin]	0.2%	
C[C@@H]1O[C@@H](O[C@H]2[C@H](O)[C@@H](O)[C@H](O[C@H]3CC[C@]4(C)[C@H]5C=C[C@]67OC[C@@]8(CCC(C)(C)C[C@H]86)[C@@H](O)C[C@@]7(C)[C@]5(C)CC[C@H]4C3(C)C)O[C@@H]2CO[C@@H]2O[C@H](CO)[C@@H](O)[C@H](O)[C@H]2O)[C@H](O)[C@H](O)[C@H]1O [Saikosaponin C]	1.5%	
CC(C)=CCC/C(C)=C/CC/C(C)=C/CC/C=C(\C)CC/C=C(\C)CCC=C(C)C [Squalene]	3.4%	
O=C(O[C@@H]1Cc2c(O)cc(O)cc2O[C@@H]1c1cc(=O)c(O)c2c(O)c(O)cc([C@H]3Oc4cc(O)cc(O)c4C[C@H]3O)c2c1)c1cc(O)c(O)c(O)c1 [Theaflavin-3'-gallate]		-5.1%
CSCC[C@H](NC(=O)[C@H](CC(C)C)NC(=O)CNC(=O)[C@H](Cc1ccccc1)NC(=O)[C@H](Cc1ccccc1)NC(=O)[C@H](CCC(N)=O)NC(=O)[C@H](CCC(N)=O)NC(=O)[C@@H]1CCCN1C(=O)[C@H](CCCCN)NC(=O)[C@@H]1CCCN1C(=O)[C@@H](N)CCCN=C(N)N)C(N)=O [Substance P]	-0.8%	
COc1ccc(-c2coc3cc(OC)ccc3c2=O)cc1 [4',7-Dimethoxyisoflavone]	2.4%	
COc1ccc(C(=O)O)c(O)c1 [2-Hydroxy-4-methoxybenzoic acid]	0.3%	
C[C@H]1O[C@@H](O[C@H]2CC[C@@]3(C)[C@@H](CC[C@]4(C)[C@@H]3C=CC3=C5CC(C)(C)CC[C@]5(CO)[C@H](O)C[C@]34C)[C@]2(C)CO)[C@H](O)[C@@H](O[C@@H]2O[C@H](CO)[C@@H](O)[C@H](O)[C@H]2O)[C@H]1O [Saikosaponin B2]	0.7%	
NCCCNCCCCNCCCN [Spermine]	2%	
CC1(C)C=Cc2c(ccc(C(=O)/C=C/c3ccc(O)cc3)c2O)O1 [Isobavachromene]		27.5%
CC(C)CCC[C@@H](C)[C@H]1CC[C@H]2[C@@H]3CC(=O)[C@H]4C[C@@H](O)CC[C@]4(C)[C@H]3CC[C@]12C [6-Ketocholestanol]	13.8%	

Reprinted at random: three records from the list
Compound	OC43 Inhibition rate	OC43 Inhibition rate (OC43 Inhibition rate, 24 h)
O=C(O[C@@H]1Cc2c(O)cc(O)cc2O[C@@H]1c1cc(=O)c(O)c2c(O)c(O)cc([C@H]3Oc4cc(O)cc(O)c4C[C@H]3O)c2c1)c1cc(O)c(O)c(O)c1 [Theaflavin-3'-gallate]		-5.1%
C[C@@H]1O[C@@H](OC[C@H]2O[C@@H](OCCc3ccc(O)c(O)c3)[C@H](O)[C@@H](O[C@@H]3O[C@@H](C)[C@H](O)[C@@H](O)[C@H]3O)[C@@H]2OC(=O)/C=C/c2ccc(O)c(O)c2)[C@H](O)[C@H](O)[C@H]1O [Poliumoside]	-0.3%	
NCCCNCCCCNCCCN [Spermine]	2%	
